Laboratory results as given in patent EP3061768A1 (dated 2016).
Changes are numbered by the printed parent chain. No constants are given. Whether binding was seen depends on the method and setting. Some results given as binding are weak or reduced against the parent protein; the word gives no strength. Sequences can lack the tags named with a protein.

Protein sequences, listed by entry. Tags and fused reporters are not part of them. Residues count along the entry.
UniProt P01584, residues 117-269: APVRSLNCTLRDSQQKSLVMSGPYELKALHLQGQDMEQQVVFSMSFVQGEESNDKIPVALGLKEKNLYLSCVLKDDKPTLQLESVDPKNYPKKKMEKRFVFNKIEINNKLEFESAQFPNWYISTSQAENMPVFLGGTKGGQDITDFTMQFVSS

B1: chimeric 1E2 Fab (llama V lambda and VH of 1E2 fused to human C lambda and CH1) (Fab, V domains shown)
VH: EVQLVESGGGLVQPGGSLRLSCTASGFTFSNYWMYWVRQAPGKGLEWVSAINAAGSTYYADSVKGRFTISRDNAKNTLYLQMNSLQSEDTALYYCANLPRWGQGTQVTVSS
VL: QTVVTQEPSLSVSPGGTVTLTCGLSSGSVTSGNYPGWYQQKPGQAPRTLIYNTNSRYSGVPNRFSGSISGNKAALTITGAQPEDEADYYCAVYIGSSSYPVVFGGGTHLTVLG
B2: Fab 1E2 wt V lambda / safe VH (Fab, V domains shown)
VH: B1 VH with T23A, A74S, L92V
VL: B1 VL
B3: Fab 1E2 wt V lambda / hum VH (Fab, V domains shown)
VH: B1 VH with T23A, A74S, Q86R, S87A, L92V, Q106L
VL: B1 VL
B4: safe variant 1F2 gene3-Fab fusion on phage (Fab, V domains shown)
VH: EVQLLESGGGLVQPGGSLRLSCAASGFTFSTYAMSWVRQAPGKGPEWVSGINTGGGSTGYADSVKGRFTISRDNSKNTLYLQMNSLRPEDTAVYYCAKDWMATTPWGQGTQVTVSS
VL: QTVVTQEPSFSVSPGGTVTLTCGLSSGSVTTNNYPGWFQQTPGQAPRTLIYNTNNRHSGVPSRFSGSILGNKAALTITGAQADDESDYYCALYMSSGSNNAVFGGGTKLTVLG
notes: The text says 'partially humanized V lambda fused to human C lambda and CH1'; the result sentence speaks of back mutations in both VL and VH, so the safe VH is used; also called safe 1F2; partially humanized 1F2
B5: hum 1F2 gene3-Fab fusion on phage (Fab, V domains shown)
VH: B4 VH with P45L, P88A, Q111L
VL: B4 VL with F38Y, H57S, S62D
notes: also called fully humanized 1F2
B6: wild type llama 1E2 Fab (Fab, V domains shown)
VH: B1 VH
VL: B1 VL

Experiments:
[1] = target: human IL-1 Beta (human) (UniProt P01584); assay: ELISA: Fab captured on anti-myc plate, biotinylated human IL-1 Beta, streptavidin-HRP
[2] = target: human IL-1 Beta (human) (UniProt P01584); assay: phage ELISA: biotinylated IL-1 Beta captured on neutravidin, anti-M13-HRP

Row | Binder | binding [1] | binding [2]
1 | B1 | binds | 
2 | B2 | binds | 
3 | B3 | binds | 
4 | B4 |  | binds
5 | B5 |  | binds
6 | B6 | binds | 
